Results are given in words; binding and its absence hold for the method and conditions named. Binding seen in cells or lysates may run through a third protein. Some binding calls cover weakened binding; strength is not graded here. Sequences can lack the tags named with a protein.

The record followed here is paper doi:10.1101/2020.05.14.095364 (bioRxiv, 2020).

Holding throughout (assay): pull-down
One test deals with T1, GST-CGN(1-70) (canine, UniProt A7YH32 1-70).
T1 sequence (looked up): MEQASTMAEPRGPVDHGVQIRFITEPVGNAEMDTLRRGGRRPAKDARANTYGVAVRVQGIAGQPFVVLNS

Test [1] deals with T2, GST-tagged hCGN (1-121aa) (human) (UniProt Q9P2M7).
T2 sequence: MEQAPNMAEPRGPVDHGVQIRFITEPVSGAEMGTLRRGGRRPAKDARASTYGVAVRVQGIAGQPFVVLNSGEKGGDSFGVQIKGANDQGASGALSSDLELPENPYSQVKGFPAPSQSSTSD

Test [2] addresses T3, GST-tagged hCGN (1-353aa) (human) (UniProt Q9P2M7).
T3 sequence: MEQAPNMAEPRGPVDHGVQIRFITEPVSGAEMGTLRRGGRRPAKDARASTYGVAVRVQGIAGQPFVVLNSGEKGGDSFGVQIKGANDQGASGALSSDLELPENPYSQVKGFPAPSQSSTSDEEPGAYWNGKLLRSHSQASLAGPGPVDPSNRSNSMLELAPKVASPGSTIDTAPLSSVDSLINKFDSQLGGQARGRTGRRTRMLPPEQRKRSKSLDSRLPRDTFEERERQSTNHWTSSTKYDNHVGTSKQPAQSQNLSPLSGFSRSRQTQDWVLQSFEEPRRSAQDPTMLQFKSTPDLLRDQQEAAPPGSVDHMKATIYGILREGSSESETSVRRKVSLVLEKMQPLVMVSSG

Test [3] concerns the target T4, GST-tagged hCGNL1 (1-119aa) (human) (UniProt Q0VF96).
T4 sequence: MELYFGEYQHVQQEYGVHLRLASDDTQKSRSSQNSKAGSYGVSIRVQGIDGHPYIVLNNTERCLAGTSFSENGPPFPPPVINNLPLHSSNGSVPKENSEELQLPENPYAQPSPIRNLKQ

As to “GFP-tagged hZO-1 (residues 888-1619) (from UniProt Q07157 888-1619) (domain or fragment)”, the binding entry with GST-CGN(1-70) is reported as “no binding”.

Consider “GFP-tagged hZO-1 (residues 888-1748) (from UniProt Q07157 888-1748) (domain or fragment)”, for which the binding result with GST-CGN(1-70) is recorded as “binds”.

Consider “GFP-tagged hZO-1 (residues 1150-1619) (from UniProt Q07157 1150-1619) (domain or fragment)”, for which the binding entry with GST-CGN(1-70) is on record as “no binding”.

As for “GFP-tagged hZO-1 (residues 1150-1748) (from UniProt Q07157 1150-1748) (domain or fragment)”, in the test with GST-CGN(1-70), the binding entry is given as “binds”.

B1: GFP-tagged hZO-1 (residues 1619-1748), isolated ZU5 fragment (domain or fragment, human, UniProt Q07157 1619-1748, looked up)
chain: SAVEEDEDEDGHTVVATARGIFNSNGGVLSSIETGVSIIIPQGAIPEGVEQEIYFKVCRDNSILPPLDKEKGETLLSPLVMCGPHGLKFLKPVELRLPHCDPKTWQNKCLPGDPNYLVGANCVSVLIDHF
In the case of B1, the binding result (in test [1]; in test [2]; in test [3]; with GST-CGN(1-70)) was “binds” throughout.
